From paper PMC12742282

Amino acid sequences for entries named in this document (tags omitted). A change or cut given only in a name is not applied to a line headed by its entry. Residues count along the entry.
UniProt Q8ILA9: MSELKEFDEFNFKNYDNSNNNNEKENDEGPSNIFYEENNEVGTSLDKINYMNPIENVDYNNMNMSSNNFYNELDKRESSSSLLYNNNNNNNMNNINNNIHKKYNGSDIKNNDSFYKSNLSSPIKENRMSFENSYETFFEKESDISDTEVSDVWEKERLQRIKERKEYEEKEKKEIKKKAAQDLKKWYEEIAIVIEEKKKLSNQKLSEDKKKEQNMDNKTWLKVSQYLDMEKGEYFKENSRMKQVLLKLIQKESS
UniProt Q8IKS3: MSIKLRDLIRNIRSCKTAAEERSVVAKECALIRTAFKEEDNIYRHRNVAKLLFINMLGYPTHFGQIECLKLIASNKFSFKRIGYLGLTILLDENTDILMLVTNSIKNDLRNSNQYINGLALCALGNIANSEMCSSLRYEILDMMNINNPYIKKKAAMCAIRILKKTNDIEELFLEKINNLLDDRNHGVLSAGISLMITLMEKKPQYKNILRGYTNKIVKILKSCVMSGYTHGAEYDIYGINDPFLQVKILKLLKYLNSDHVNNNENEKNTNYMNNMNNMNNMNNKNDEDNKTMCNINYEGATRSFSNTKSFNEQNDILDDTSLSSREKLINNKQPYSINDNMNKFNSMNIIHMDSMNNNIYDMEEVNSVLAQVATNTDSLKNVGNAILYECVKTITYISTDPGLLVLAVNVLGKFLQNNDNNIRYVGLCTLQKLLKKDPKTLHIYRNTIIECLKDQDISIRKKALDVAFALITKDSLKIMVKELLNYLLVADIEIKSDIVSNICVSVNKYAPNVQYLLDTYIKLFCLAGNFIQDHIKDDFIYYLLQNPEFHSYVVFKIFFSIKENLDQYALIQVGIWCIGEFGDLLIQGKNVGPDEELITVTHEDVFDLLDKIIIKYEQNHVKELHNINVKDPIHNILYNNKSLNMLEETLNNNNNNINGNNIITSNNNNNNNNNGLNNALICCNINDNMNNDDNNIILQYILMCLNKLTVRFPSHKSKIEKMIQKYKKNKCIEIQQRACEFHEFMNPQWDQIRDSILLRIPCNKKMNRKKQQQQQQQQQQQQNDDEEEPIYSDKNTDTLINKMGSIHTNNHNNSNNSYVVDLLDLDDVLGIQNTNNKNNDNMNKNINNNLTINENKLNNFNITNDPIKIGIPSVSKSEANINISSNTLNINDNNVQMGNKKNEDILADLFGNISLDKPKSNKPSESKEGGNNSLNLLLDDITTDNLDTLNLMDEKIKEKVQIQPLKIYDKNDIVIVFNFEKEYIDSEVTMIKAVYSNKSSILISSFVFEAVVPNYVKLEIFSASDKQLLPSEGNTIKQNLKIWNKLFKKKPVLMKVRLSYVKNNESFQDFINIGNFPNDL
UniProt Q8I5L6: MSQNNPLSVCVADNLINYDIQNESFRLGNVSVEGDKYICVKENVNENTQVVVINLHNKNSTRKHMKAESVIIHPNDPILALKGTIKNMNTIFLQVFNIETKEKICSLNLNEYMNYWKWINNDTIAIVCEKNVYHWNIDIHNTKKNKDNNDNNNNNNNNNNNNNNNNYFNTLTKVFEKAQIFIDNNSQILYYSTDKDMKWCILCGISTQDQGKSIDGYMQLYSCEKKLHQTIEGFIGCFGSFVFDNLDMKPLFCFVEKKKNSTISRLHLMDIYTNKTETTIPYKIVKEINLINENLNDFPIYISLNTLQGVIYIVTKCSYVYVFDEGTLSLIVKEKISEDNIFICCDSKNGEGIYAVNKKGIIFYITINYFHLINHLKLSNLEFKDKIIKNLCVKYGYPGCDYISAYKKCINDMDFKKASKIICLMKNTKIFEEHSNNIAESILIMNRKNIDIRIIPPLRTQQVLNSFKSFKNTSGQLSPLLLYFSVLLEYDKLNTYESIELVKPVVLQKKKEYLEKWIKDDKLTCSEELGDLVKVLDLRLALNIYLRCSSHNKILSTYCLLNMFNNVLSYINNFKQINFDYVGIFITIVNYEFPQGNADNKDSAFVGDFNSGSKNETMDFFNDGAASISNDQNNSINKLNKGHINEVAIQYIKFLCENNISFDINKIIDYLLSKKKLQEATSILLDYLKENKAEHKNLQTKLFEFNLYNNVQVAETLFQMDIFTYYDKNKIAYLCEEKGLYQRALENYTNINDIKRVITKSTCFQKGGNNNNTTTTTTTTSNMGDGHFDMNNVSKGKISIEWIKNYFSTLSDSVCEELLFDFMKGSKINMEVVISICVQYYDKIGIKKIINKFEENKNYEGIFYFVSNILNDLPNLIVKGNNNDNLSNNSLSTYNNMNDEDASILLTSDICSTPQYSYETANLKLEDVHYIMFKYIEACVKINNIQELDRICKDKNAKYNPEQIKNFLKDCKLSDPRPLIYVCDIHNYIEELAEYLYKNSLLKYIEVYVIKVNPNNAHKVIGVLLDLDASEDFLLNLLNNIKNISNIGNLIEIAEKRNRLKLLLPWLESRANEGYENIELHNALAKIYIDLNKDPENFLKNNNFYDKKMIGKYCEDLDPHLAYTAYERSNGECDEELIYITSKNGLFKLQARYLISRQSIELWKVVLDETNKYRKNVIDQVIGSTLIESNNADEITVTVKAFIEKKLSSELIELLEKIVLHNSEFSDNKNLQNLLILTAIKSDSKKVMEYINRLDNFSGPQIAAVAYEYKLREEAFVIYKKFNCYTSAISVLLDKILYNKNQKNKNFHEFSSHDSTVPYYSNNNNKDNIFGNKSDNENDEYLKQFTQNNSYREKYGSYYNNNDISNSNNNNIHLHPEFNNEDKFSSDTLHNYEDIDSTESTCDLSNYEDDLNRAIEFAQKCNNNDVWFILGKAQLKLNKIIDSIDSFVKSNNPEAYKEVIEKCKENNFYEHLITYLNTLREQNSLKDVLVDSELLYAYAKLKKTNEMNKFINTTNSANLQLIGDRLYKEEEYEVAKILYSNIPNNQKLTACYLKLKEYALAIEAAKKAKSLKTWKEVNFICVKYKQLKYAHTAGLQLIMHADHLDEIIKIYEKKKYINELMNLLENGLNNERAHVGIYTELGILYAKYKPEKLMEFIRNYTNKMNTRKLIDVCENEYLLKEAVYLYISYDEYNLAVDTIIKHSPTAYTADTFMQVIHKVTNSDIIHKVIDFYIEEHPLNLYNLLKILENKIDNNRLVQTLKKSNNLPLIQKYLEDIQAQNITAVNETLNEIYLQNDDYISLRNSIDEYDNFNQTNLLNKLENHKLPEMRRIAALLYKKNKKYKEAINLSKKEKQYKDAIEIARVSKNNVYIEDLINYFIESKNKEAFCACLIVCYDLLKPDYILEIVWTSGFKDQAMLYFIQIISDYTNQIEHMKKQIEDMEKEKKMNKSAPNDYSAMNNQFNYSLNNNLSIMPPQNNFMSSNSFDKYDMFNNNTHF
UniProt Q8IEK4: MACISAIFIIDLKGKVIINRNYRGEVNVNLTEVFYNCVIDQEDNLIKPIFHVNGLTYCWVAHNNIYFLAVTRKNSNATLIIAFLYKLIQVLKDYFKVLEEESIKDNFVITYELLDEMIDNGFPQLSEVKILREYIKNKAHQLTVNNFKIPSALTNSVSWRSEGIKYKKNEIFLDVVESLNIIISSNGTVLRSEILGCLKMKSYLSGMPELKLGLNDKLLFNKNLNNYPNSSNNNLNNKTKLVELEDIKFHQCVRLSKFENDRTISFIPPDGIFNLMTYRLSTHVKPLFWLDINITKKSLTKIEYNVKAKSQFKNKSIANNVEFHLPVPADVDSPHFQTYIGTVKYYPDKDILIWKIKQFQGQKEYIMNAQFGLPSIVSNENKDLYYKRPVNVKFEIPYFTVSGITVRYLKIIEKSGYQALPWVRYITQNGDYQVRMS
UniProt C6KSX7: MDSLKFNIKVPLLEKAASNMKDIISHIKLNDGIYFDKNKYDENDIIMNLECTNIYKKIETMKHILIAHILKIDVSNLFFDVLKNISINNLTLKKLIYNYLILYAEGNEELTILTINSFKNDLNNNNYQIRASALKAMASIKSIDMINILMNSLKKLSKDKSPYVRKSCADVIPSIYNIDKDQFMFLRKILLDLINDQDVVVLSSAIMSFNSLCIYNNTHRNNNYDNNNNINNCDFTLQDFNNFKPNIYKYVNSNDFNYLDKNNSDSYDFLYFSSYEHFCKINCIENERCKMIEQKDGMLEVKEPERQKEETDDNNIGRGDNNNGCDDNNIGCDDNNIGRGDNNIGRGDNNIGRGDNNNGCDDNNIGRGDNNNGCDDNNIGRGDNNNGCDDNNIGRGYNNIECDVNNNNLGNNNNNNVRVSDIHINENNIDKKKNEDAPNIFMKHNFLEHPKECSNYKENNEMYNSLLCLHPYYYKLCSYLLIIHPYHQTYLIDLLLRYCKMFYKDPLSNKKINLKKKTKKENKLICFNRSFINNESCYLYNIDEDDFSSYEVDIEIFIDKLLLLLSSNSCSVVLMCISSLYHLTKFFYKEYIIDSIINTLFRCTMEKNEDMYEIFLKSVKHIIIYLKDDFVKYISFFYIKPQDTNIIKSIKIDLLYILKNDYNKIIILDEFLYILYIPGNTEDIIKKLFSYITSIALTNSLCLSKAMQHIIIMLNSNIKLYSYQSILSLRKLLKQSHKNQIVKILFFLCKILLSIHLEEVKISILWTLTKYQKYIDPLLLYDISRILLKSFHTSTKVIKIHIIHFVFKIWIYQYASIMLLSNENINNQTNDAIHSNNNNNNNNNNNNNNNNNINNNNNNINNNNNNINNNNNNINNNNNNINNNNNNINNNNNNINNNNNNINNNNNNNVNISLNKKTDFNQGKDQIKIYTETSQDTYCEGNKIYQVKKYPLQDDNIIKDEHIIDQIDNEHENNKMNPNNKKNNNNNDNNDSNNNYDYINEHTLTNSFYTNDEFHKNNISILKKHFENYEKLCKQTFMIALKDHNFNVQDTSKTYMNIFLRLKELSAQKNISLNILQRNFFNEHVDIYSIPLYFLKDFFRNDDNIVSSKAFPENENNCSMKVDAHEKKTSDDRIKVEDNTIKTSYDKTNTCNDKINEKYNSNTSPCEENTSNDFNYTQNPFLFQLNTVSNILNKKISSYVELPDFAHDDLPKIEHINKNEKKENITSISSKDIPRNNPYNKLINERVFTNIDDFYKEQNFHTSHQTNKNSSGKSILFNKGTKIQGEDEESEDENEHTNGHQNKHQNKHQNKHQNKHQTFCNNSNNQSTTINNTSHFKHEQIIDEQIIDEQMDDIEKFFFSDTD
UniProt Q8IIJ9, residues 28-700: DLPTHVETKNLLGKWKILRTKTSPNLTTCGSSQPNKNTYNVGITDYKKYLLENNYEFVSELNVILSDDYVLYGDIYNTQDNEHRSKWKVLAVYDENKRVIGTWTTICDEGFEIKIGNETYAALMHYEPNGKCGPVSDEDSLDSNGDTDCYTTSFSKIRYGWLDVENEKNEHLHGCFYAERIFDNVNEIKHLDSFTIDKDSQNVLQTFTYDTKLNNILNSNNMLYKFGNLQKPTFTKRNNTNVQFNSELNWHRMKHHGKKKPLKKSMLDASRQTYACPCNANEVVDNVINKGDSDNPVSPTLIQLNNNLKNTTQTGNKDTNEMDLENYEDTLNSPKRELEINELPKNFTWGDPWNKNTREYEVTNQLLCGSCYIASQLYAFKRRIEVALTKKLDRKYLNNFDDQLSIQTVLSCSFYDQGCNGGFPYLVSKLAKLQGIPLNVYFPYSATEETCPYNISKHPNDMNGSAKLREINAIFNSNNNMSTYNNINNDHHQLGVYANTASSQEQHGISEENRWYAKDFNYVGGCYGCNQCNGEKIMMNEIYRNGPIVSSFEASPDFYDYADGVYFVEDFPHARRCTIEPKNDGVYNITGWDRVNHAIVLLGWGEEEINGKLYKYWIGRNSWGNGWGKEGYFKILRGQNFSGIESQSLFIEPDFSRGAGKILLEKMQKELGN
UniProt Q76NM6: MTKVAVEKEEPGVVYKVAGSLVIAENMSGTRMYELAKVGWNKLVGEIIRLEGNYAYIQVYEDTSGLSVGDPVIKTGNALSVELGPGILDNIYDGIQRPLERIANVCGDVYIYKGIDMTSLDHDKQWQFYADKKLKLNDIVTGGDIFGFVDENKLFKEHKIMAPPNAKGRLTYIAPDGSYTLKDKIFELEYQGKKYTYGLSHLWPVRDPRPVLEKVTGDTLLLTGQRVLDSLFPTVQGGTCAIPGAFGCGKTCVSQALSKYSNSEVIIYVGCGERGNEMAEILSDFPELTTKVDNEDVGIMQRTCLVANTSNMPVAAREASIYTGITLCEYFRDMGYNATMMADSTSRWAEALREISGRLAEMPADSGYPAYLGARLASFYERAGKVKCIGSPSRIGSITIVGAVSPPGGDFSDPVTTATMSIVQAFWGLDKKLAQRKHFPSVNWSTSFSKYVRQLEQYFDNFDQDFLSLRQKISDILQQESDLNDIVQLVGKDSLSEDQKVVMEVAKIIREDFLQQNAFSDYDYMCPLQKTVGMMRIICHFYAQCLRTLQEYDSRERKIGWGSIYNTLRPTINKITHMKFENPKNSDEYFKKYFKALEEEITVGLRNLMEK
UniProt Q8ILP0: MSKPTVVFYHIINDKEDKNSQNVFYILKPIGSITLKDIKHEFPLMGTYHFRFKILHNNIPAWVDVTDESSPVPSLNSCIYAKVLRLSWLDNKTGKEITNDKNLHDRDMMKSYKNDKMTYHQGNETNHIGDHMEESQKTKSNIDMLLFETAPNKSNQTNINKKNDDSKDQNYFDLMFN

Key:
[1] = target: PfCLC‐GFP (clathrin light chain, endogenous locus tagged with GFP) (P. falciparum) (UniProt Q8ILA9); experiment: affinity purification with mass spectrometry; GFP-Trap agarose precipitation from the PfCLC::GFP parasite line, LC-MS/MS, three replicates, 3D7 parasites as control, same SAINT cutoffs
[2] = target: PfAP‐1 γ‐GFP (AP‐1 γ subunit, endogenous locus tagged with GFP) (P. falciparum) (UniProt Q8IKS3); experiment: affinity purification with mass spectrometry; GFP-Trap agarose precipitation from the PfAP-1 γ::GFP parasite line, LC-MS/MS, three replicates, 3D7 parasites as control
[3] = target: PfCHC‐GFP (clathrin heavy chain, endogenous locus tagged with GFP) (P. falciparum) (UniProt Q8I5L6); experiment: affinity purification with mass spectrometry; GFP-Trap agarose precipitation from trophozoites of the PfCHC::GFP parasite line, LC-MS/MS, two replicates, 3D7 parasites as control, SAINT (probability above 90%, FDR below 2.5%)
[4] = target: PfCHC‐GFP (clathrin heavy chain, endogenous locus tagged with GFP) (P. falciparum) (UniProt Q8I5L6); experiment: as above; remark: listed apart in the source

binding [1]	binding [2]	binding [3]	binding [4]	Molecule
binds	binds	binds		AP‐1 μ1 (from UniProt Q8IEK4)
binds	binds	binds		AP‐1 σ1 (from UniProt Q8III7)
binds				AP‐3 β (from UniProt C6KSX7)
binds	binds			AP‐3 μ3 (from UniProt Q8IL63)
binds				AP‐4 β (from UniProt Q8IBF8)
binds				AP‐4 ε (from UniProt Q8I3A8)
binds				AP‐4 μ4 (from UniProt Q8IIH2)
binds				AP‐4 σ (from UniProt Q8IFN5)
binds	binds			Dipeptidyl aminopeptidase 1 (from UniProt Q8IIJ9 28-700) (enzyme)
binds	binds	binds		DnaJ protein (from UniProt Q8ILY2)
binds		binds		PfAP‐1 γ (AP‐1 γ subunit) (from UniProt Q8IKS3)
binds	binds			PfCHC (clathrin heavy chain) (from UniProt Q8I5L6 1-1997)
	binds	binds		PfCLC (clathrin light chain) (from UniProt Q8ILA9)
binds	binds			V‐type proton ATPase catalytic subunit A (from UniProt Q76NM6 1-611)
binds	binds			V‐type proton ATPase subunit E (from UniProt Q8I2H3)
binds	binds			V‐type proton ATPase subunit F (from UniProt Q8IHW4)
binds	binds			V‐type proton ATPase subunit G (from UniProt Q8IE84)
binds	binds	binds		putative AP‐4 complex accessory subunit Tepsin (from UniProt Q8IKN5)
binds			binds	M17 leucyl aminopeptidase (enzyme, UniProt Q8IL11 1-605) MYFSSLCKFLPISEKEKIYLNIVKKRFCKSNIYYNNNNNNIINYNKRGLKFYPFCNNLKKNINFVNINNKKGINFHSINKERKMASEVPQVVSLDPTSIPIEYNTPIHDIKVQVYDIKGGCNVEEGLTIFLVNNPGKENGPVKISSKVNDKNVSEFLKDENMEKFNVKLGTSKHFYMFNDNKNSVAVGYVGCGSVADLSEADMKRVVLSLVTMLHDNKLSKLTVVFEINVDKNLFRFFLETLFYEYMTDERFKSTDKNVNMEYIKHLGVYINNADTYKEEVEKARVYYFGTYYASQLIAAPSNYCNPVSLSNAAVELAQKLNLEYKILGVKELEELKMGAYLSVGKGSMYPNKFIHLTYKSKGDVKKKIALVGKGITFDSGGYNLKAAPGSMIDLMKFDMSGCAAVLGCAYCVGTLKPENVEIHFLSAVCENMVSKNSYRPGDIITASNGKTIEVGNTDAEGRLTLADALVYAEKLGVDYIVDIATLTGAMLYSLGTSYAGVFGNNEELINKILNSSKTSNEPVWWLPIINEYRATLNSKYADINNISSSVKASSIVASLFLKEFVQNTAWAHIDIAGVSWNFKARKPKGFGVRLLTEFVLNDAL
binds	binds			M18 aspartyl aminopeptidase (enzyme, UniProt Q8I2J3 1-570) MDKKAREYAQDALKFIQRSGSNFLACKNLKERLENNGFINLSEGETWNLNKNEGYVLCKENRNICGFFVGKNFNIDTGSILISIGHIDSCALKISPNNNVIKKKIHQINVECYGSGLWHTWFDRSLGLSGQVLYKKGNKLVEKLIQINKSVLFLPSLAIHLQNRTRYDFSVKINYENHIKPIISTTLFNQLNKCKRNNVHHDTILTTDTKFSHKENSQNKRDDQMCHSFNDKDVSNHNLDKNTIEHLTNQQNEEKNKHTKDNPNSKDIVEHINTDNSYPLLYLLSKELNCKEEDILDFELCLMDTQEPCFTGVYEEFIEGARFDNLLGSFCVFEGFIELVNSIKNHTSNENTNHTNNITNDINDNIHNNLYISIGYDHEEIGSLSEVGARSYCTKNFIDRIISSVFKKEIHEKNLSVQEIYGNLVNRSFILNVDMAHCSHPNYPETVQDNHQLFFHEGIAIKYNTNKNYVTSPLHASLIKRTFELYYNKYKQQIKYQNFMVKNDTPCGSTVGSMVAANLSMPGIDIGIPQLAMHSIREIAAVHDVFFLIKGVFAFYTYYNQVLSTCVHDK

Molecule	binding [1]	binding [2]	binding [3]	binding [4]
AP‐2 α (from UniProt C6KT12)	binds		no binding	
AP‐2 μ2 (from UniProt Q8I5M5)		binds	no binding	
DIX domain‐containing protein (from UniProt Q8ILP0)	binds		binds	
Eps15 (from UniProt Q8IJF4)	binds	binds		
KIC3 (from UniProt Q8I308)	binds		no binding	
Sortilin (from UniProt Q8IKV8)	binds		binds	
falstatin (from UniProt Q8I333)	binds			

Where two headings read alike, the source gives them in different places. Results are given in words; binding and its absence hold for the method and conditions named. Binding seen in cells or lysates may run through a third protein. These calls come from enrichment with a bait or labelling near it, and not all partners need be listed. For some of these results: A no says only that the protein was not detected with the bait.
